Results are given in words; binding and its absence hold for the method and conditions named. Some entries that bind do so weakly or less than the wild type.

Chains of the proteins cited; added tags and fusions are not shown. Residues count along the entry.
UniProt P01024, residues 996-1303: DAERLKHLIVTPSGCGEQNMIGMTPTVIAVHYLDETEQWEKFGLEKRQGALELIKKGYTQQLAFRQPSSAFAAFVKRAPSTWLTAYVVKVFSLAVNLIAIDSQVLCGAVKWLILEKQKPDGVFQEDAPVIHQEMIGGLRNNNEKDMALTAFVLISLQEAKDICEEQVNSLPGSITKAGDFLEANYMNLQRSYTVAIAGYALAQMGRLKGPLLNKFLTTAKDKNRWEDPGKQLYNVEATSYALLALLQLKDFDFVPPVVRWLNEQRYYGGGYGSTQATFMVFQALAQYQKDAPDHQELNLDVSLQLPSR
UniProt P01027, residues 955-1303: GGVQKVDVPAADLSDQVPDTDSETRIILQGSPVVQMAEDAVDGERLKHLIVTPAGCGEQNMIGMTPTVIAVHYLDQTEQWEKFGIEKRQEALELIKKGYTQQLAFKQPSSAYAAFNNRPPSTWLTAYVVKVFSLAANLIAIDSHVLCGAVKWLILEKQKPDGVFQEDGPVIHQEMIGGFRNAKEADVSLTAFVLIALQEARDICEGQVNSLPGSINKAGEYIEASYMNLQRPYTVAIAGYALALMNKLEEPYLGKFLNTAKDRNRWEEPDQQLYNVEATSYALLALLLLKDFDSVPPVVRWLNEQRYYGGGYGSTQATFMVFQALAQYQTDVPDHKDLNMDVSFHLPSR
UniProt P20023, residues 21-153: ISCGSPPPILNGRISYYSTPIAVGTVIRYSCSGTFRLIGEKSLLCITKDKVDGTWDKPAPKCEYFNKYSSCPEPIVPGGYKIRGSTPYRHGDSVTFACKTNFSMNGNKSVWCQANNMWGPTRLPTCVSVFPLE

In patent US20130078245A1 one finds binding data, which are given here for two substances.

For test [1], the target named is recombinant human C3d (human) (UniProt P01024). Put plainly: ELISA on plate-bound C3d, detected with HRP anti-MBP; signal given as % binding [left panel].
Test [2] concerns the target mouse C3 fragments iC3b and C3dg/C3d bound to a surface (C3-opsonized zymosan particles; glomerular deposits in factor H deficient mice) (mouse) (UniProt P01027). Put plainly: 0.5 mg CR2-Fc injected into an fH-/- mouse by the tail vein, kidneys after 24 hours, FITC anti-mouse IgG.

Consider “recombinant maltose binding protein (MBP)-CR2 SCRs 1-2 (from UniProt P20023 21-153) (receptor)”, for which the binding result in test [1] was “binds”.

Take “chimeric protein comprised of the iC3b/C3d binding region of human CR2 linked to the Fc region of mouse IgG1 (CR2-Fc) (from UniProt P20023 21-153) (Fc fusion)”: the binding result in test [2] is on record as “binds”.
